Assay: peptide made by a vendor
Conditions: whole synthesis

In the case of Ac-CYRITAREDKQGWA-OH, the “final HPLC purity” value was 96%.

From patent US9193777B2 (Mayo Foundation for Medical Education and Research, priority 2009, dated 2015)
